Data published in PubChem BioAssay (EPA / NIEHS).
The shares of active, inactive and inconclusive entries below differ from those in the screen. For some of these results: Potencies beside an inconclusive call are fits to weak or partial responses and may not hold up. The source made the active and inactive calls. How the source made its calls: active means hit-call score of the fitted dose curve at least 0.9, where 1 is the maximum; inconclusive means response in the unintended direction; inactive means score below 0.9.

Protein sequences, listed by entry. Tags and fused reporters are not part of them. Lines headed by an entry give the natural chain unless they say otherwise; changes in a name come on top.
UniProt P19785, whole entry, looked up: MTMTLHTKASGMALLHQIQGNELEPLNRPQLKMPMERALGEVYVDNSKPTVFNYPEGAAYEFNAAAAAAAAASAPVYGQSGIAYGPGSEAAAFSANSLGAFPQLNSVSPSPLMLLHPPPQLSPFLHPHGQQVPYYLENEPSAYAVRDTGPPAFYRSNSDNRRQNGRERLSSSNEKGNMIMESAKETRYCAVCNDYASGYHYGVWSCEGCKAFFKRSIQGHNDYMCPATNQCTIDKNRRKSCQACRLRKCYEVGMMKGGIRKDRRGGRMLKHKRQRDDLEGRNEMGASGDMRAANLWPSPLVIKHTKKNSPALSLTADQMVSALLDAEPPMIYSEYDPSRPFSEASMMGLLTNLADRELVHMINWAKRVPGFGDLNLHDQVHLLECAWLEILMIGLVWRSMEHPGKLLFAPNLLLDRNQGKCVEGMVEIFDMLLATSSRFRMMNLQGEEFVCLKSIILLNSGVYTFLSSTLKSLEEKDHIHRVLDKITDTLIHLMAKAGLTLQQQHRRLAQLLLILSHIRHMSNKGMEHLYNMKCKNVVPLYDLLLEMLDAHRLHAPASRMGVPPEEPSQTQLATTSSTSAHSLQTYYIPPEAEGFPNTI
UniProt P10826, whole entry, looked up: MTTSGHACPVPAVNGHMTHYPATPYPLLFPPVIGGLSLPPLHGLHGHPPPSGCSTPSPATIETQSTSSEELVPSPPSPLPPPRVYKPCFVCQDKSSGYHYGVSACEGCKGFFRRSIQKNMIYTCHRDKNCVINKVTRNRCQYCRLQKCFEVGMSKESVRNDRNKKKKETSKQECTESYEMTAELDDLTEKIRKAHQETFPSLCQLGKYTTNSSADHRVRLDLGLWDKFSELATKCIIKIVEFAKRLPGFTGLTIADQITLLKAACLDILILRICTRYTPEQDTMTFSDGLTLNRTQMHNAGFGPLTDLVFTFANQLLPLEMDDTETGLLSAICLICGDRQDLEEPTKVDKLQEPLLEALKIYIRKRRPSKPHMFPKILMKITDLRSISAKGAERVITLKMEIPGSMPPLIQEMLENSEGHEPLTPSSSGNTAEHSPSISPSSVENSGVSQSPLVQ
UniProt P10276, whole entry, looked up: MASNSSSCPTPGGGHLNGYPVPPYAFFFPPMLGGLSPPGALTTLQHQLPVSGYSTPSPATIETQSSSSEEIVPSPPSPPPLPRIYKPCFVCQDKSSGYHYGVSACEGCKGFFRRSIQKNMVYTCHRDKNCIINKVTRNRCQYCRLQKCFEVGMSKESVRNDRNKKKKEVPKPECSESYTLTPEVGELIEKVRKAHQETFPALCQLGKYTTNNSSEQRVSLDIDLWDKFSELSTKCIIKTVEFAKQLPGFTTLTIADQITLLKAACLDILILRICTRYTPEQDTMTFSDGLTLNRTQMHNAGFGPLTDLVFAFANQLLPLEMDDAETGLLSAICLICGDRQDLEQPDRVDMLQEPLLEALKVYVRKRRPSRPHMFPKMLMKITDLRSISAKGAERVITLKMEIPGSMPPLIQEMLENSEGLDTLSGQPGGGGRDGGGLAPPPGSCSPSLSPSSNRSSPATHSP
UniProt O75469: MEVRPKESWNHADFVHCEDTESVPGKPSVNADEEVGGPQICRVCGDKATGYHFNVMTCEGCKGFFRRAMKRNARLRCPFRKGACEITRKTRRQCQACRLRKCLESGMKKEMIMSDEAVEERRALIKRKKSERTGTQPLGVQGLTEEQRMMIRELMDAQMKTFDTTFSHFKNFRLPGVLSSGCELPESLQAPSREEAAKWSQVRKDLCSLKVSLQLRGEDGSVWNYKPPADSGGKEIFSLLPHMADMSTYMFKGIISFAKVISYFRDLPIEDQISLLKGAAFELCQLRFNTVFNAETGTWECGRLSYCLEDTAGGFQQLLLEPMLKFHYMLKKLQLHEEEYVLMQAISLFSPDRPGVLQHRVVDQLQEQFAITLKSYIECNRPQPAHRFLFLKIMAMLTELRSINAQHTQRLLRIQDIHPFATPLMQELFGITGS
UniProt P13631, whole entry, looked up: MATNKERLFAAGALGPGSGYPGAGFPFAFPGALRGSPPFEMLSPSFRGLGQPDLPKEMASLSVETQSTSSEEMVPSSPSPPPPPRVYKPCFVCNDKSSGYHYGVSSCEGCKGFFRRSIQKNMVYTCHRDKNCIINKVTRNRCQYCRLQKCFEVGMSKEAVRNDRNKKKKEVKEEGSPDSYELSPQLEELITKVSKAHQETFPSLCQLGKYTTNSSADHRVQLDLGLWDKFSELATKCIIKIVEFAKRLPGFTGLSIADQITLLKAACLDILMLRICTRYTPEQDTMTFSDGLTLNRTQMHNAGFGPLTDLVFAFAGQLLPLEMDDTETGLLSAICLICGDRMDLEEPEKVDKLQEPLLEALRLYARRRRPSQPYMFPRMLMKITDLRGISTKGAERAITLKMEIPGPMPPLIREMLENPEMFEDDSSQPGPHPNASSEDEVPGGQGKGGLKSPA
UniProt Q92753: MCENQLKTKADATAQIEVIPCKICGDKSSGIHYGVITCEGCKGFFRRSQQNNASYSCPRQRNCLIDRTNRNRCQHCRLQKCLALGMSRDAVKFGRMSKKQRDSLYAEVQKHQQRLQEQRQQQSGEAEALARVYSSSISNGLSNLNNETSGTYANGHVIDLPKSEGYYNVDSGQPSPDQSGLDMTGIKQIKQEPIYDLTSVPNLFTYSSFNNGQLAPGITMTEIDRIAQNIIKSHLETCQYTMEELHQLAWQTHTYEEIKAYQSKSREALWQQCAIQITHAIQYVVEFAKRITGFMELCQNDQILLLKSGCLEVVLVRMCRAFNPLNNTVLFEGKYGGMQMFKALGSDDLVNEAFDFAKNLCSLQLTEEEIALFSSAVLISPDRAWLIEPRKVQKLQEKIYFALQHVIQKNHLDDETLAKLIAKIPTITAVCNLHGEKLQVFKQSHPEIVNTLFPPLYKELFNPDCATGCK
UniProt P51449: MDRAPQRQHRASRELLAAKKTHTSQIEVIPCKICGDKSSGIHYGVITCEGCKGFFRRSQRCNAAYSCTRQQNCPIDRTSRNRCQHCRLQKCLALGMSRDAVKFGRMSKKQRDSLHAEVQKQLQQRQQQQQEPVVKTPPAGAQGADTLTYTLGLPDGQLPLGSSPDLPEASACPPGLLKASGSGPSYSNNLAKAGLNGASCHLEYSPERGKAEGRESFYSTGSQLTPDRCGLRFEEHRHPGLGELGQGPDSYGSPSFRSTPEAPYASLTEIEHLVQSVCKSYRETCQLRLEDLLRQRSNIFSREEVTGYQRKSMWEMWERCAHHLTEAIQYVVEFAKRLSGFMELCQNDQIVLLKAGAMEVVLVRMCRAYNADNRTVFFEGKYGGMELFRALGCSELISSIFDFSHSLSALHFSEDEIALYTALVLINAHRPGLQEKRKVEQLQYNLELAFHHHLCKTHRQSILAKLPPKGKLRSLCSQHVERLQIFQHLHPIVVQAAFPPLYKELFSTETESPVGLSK
UniProt P10827: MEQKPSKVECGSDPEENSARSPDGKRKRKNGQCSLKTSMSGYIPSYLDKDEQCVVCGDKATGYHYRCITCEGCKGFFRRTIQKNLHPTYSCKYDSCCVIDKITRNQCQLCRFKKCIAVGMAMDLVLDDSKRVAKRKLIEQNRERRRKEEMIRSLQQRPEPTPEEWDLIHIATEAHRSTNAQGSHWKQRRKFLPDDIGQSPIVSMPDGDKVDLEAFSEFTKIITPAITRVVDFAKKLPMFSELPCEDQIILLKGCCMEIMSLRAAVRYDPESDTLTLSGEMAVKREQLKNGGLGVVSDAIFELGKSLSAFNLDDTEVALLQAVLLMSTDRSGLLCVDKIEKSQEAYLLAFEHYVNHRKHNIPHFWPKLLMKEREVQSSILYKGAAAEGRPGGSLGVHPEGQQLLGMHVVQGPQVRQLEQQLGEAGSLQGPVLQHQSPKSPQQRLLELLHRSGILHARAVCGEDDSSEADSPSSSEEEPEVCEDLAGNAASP
UniProt P49884, whole entry, looked up: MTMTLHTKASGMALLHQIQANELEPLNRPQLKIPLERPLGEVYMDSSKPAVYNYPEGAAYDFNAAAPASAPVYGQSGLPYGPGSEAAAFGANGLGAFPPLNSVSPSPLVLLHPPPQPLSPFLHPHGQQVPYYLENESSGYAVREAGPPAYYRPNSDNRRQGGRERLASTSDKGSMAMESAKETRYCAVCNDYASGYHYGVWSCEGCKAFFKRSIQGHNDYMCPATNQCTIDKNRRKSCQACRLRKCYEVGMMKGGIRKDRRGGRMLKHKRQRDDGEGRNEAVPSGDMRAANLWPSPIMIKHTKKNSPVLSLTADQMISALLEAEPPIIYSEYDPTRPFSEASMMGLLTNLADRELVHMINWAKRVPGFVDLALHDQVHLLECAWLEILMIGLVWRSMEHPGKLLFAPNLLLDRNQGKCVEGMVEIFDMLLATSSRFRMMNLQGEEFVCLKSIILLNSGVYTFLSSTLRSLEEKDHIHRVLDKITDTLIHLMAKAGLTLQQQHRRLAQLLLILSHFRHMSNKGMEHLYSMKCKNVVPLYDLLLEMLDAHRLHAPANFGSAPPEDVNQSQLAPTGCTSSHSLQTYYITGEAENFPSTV
UniProt P04637, whole entry, looked up: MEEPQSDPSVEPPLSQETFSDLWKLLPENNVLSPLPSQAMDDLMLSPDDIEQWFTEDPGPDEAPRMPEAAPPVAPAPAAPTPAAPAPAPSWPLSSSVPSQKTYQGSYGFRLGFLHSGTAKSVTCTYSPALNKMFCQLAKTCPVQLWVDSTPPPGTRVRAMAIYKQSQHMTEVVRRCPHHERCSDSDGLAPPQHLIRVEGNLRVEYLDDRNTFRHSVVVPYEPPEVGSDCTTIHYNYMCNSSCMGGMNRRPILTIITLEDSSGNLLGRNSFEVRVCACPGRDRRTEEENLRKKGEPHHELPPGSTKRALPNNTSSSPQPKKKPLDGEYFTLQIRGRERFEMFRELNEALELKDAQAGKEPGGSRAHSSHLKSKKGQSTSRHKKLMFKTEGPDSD
UniProt P03372, whole entry, looked up: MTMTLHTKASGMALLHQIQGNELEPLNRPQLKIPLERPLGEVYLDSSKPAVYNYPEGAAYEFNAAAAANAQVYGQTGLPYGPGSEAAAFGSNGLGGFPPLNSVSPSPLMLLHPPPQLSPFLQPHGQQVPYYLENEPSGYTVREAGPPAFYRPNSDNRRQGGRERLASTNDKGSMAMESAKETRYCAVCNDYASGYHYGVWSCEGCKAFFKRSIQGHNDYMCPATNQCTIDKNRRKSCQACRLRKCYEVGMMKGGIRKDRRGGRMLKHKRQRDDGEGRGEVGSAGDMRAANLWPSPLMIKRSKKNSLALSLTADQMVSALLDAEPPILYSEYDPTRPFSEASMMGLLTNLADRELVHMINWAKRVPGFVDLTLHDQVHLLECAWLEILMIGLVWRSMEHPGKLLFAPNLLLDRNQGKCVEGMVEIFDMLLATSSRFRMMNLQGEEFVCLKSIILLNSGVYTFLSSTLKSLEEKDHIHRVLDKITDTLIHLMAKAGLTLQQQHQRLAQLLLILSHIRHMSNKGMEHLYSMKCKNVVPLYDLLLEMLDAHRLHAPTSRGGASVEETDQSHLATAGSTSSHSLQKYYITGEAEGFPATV
UniProt P10828: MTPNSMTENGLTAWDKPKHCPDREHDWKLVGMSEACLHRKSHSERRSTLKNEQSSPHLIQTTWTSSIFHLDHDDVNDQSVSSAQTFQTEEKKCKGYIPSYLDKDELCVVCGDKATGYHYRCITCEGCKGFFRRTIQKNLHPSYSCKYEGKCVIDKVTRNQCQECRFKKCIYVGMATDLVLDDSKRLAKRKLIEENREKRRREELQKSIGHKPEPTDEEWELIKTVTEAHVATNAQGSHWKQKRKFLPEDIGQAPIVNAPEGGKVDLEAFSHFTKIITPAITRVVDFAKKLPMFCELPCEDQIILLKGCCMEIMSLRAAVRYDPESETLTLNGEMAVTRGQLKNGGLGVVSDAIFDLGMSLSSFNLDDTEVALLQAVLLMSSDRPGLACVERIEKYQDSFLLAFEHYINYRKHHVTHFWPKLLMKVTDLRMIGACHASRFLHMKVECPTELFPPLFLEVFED
UniProt Q01959, whole entry, looked up: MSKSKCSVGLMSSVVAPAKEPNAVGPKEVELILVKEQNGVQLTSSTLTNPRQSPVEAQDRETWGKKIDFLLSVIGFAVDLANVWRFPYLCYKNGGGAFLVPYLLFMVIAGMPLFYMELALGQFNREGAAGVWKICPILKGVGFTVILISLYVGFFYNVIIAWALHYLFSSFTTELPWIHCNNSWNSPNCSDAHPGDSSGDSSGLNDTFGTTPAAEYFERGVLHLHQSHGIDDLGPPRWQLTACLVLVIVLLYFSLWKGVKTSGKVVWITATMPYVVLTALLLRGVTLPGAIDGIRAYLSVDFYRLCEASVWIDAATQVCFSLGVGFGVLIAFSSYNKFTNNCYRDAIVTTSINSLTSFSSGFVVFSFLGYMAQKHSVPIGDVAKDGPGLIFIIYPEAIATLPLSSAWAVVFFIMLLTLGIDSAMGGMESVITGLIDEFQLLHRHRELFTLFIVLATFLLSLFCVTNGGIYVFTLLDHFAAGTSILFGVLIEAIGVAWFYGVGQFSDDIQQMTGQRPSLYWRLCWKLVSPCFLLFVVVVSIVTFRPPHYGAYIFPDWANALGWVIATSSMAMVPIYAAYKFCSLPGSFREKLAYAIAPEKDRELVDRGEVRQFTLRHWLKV

Legend:
[1] = biological target: mouse Estrogen Receptor alpha (Era), Esr1 (gene 13982) (UniProt P19785); assay: NVS_NR_mERa: NovaScreen (NVS) Nuclear Receptor Binding Assay for mouse Estrogen Receptor alpha (Era) (AID 2283378);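 further: hit means loss of bound radioligand signal relative to DMSO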
How it was run: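 Test chemicals competed against a specific radioligand for binding to cell-free mouse Era. Duplicate wells at 25 uM were read 18 hours later by filter-based radiodetection, with loss of signal against DMSO scored as activity.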

[2] = biological target: human Peroxisome Proliferator-activated Receptor alpha (PPARa), PPARA (gene 5465) (UniProt Q07869); assay: ATG_PPARa_TRANS: Attagene TRANS-FACTORIAL HepG2 Assay for human Peroxisome Proliferator-activated Receptor alpha (PPARa) (AID 2283001);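 further: potency for gain of reporter signal over DMSO so agonist or activator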
How it was run: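 Reporter transcripts from GAL4-UAS units in transfected HepG2 were quantified 24 h after dosing. Detection used reverse transcription, PCR, fluorescent primer extension and capillary electrophoresis, with DMSO as baseline.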

[3] = biological target: human Retinoic Acid Receptor beta (RARb), RARB (gene 5915) (UniProt P10826); assay: ATG_RARb_TRANS: Attagene TRANS-FACTORIAL HepG2 Assay for human Retinoic Acid Receptor beta (AID 2283004)
How it was run: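 HepG2, transient MRTU transfection, NR–Gal4 chimera, 24 h treatment; RT-PCR plus CE fluorescence detection of reporter mRNA; gain of signal vs DMSO.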

[4] = biological target: Retinoic acid receptor alpha (Homo sapiens) (UniProt P10276); assay: ATG_RARa_TRANS: Attagene TRANS-FACTORIAL HepG2 Assay for human Retinoic Acid Receptor alpha (RARa) (AID 2283005);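 further: potency for increased reporter signal meaning RARa activation over DMSO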
How it was run: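 Reporter transcripts, measured by RT-PCR with fluorescent labeling and capillary electrophoresis after 24 h dosing, reflect activity of an exogenous human RARa–GAL4 fusion in transiently transfected HepG2. Fitted for increase relative to DMSO.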

[5] = biological target: Nuclear receptor subfamily 1 group I member 2 (Homo sapiens) (UniProt O75469); assay: ATG_PXR_TRANS: Attagene TRANS-FACTORIAL HepG2 Assay for human Pregnane X Receptor (PXR) (AID 2283008)
How it was run: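 HepG2 cells transiently transfected with GAL4-UAS reporter units and PXR-Gal4 chimera, exposed 24 h. Reporter mRNA quantified by RT-PCR, fluorescent labelling, HpaI digestion and capillary electrophoresis; gain of signal vs DMSO.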

[6] = biological target: human Retinoic Acid Receptor gamma (RARg), RARG (gene 5916) (UniProt P13631); assay: ATG_RARg_TRANS: Attagene TRANS-FACTORIAL HepG2 Assay for human Retinoic Acid Receptor gamma (RARg) (AID 2283009);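 further: AC50 is for reporter induction above DMSO meaning RARg activation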
How it was run: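 HepG2 cells transiently transfected with multiplexed reporter units expressing chimeric RARg-GAL4 and GAL4-UAS-driven reporters; 24 h compound exposure. Reporter mRNA quantified by RT-PCR with fluorescent labelling and capillary electrophoresis; gain-of-signal fitted relative to DMSO baseline.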

[7] = biological target: human RAR-related Orphan Receptor beta (RORb), RORB (gene 6096) (UniProt Q92753); assay: ATG_RORb_TRANS: Attagene TRANS-FACTORIAL HepG2 Assay for human RAR-related Orphan Receptor beta (RORb) (AID 2283010);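 further: potency for increased reporter mRNA meaning activation of RORb-Gal4 chimera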
How it was run: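 HepG2 cells were transiently transfected with multiplexed GAL4-UAS reporter units expressing chimeric nuclear receptor–GAL4 proteins, then dosed for 24 h. Reporter mRNA was quantified by RT-PCR with fluorescent labelling and capillary electrophoresis; gain of signal was fitted relative to DMSO.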

[8] = biological target: human RAR-related Orphan Receptor gamma (RORg), RORC (gene 6097) (UniProt P51449); assay: ATG_RORg_TRANS: Attagene TRANS-FACTORIAL HepG2 Assay for human RAR-related Orphan Receptor gamma (RORg) (AID 2283011)
How it was run: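 Activity is scored as increase in GAL4-UAS reporter mRNA over DMSO, detected by fluorescent RT-PCR and capillary electrophoresis in HepG2 cells transiently expressing a RORg-Gal4 chimera, 24 h after dosing.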

[9] = biological target: human Thyroid Receptor alpha (THRa1), THRA (gene 7067) (UniProt P10827); assay: ATG_THRa1_TRANS: Attagene TRANS-FACTORIAL HepG2 Assay for human Thyroid Receptor alpha (THRa1) (AID 2283014)
How it was run: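 First, HepG2 cells receive multiple GAL4-UAS reporter units and the chimeric receptor. They are then dosed for 24 h, after which RNA is reverse-transcribed, amplified, labelled, HpaI-cut and sized by capillary electrophoresis; gain relative to DMSO is scored.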

[10] = biological target: bovine Estrogen Receptor (ER), ESR1 (gene 407238) (UniProt P49884); assay: NVS_NR_bER: NovaScreen (NVS) Nuclear Receptor Binding Assay for bovine Estrogen Receptor (ER) (AID 2283345);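 further: actives lower the bound radioligand count which means they displace the ER ligand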
How it was run: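 Cell-free radioligand binding with bovine uterine membrane extracts, read 18 hours after dosing by scintillation counting. Loss of signal versus DMSO baseline indicates displacement. Primary screen run in duplicate at 25 uM, actives followed in concentration series.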

[11] = TOX21_p53_BLA_p2_viability: Viability Assessment in the Tox21 HCT-116 p53 Agonism Beta-lactamase Assay, Phase 2 (AID 2283591);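 further: actives lower the ATP signal meaning cytotoxicity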
How it was run: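 Cytotoxicity readout: CellTiter-Glo ATP luminescence, 30 min at room temperature, after the beta-lactamase read. Cells were HCT116 exposed 16 h at 37C to compounds pin-transferred at 217-fold dilution from DMSO stocks.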

[12] = biological target: Cellular tumor antigen p53 (Homo sapiens) (UniProt P04637); assay: TOX21_p53_BLA_p2_ratio: Tox21 HCT-116 p53 Agonism Beta-lactamase Assay, Ratio, Phase 2 (AID 2283592)
How it was run: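 An inducible beta-lactamase reporter in HCT116 cells signals p53 pathway activation. After 16 h chemical exposure at 37C, cells load CCF4-AM substrate for 2 h at room temperature; activity is the cleaved/uncleaved emission ratio relative to DMSO.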

[13] = TOX21_p53_BLA_p3_viability: Viability Assessment in the Tox21 HCT-116 p53 Agonism Beta-lactamase Assay, Phase 3 (AID 2283593);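 further: cells exposed to compound for 16 h before reading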
How it was run: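 Cellular ATP was quantified by CellTiter-Glo luminescence, read after 30 min at room temperature. Beforehand, HCT116 cells (4000/well) received compound 5 h post-seeding, 217-fold diluted from DMSO, then incubated 16 h at 37C.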

[14] = biological target: Cellular tumor antigen p53 (Homo sapiens) (UniProt P04637); assay: TOX21_p53_BLA_p3_ratio: Tox21 HCT-116 p53 Agonism Beta-lactamase Assay, Ratio, Phase 3 (AID 2283596)
How it was run: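 HCT116 p53-bla cells (4000/well) given compound in DMSO (217-fold dilution) after 5 h, incubated 16 h at 37C. CCF4-AM substrate 2 h at room temperature; 460/530 nm emission ratio, gain fitted against DMSO.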

[15] = TOX21_p53_BLA_p5_viability: Viability Assessment in the Tox21 HCT-116 p53 Agonism Beta-lactamase Assay, Phase 5 (AID 2283600)
How it was run: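 Counter-readout for cytotoxicity: ATP-dependent luminescence from CellTiter-Glo, read in the beta-lactamase wells after 30 min at RT, following a 16 h compound exposure at 37C.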

[16] = biological target: Cellular tumor antigen p53 (Homo sapiens) (UniProt P04637); assay: TOX21_p53_BLA_p4_ratio: Tox21 HCT-116 p53 Agonism Beta-lactamase Assay, Ratio, Phase 4 (AID 2283601)
How it was run: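 Signal is the blue/green (460nm/530nm) ratio of cleaved versus uncleaved CCF4-AM substrate, read after 2 h substrate loading. Cells were HCT116 carrying the p53-responsive beta-lactamase reporter, dosed 16 h at 37C, 5% CO2; CellTiter-Glo measured in parallel.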

[17] = biological target: Estrogen receptor (Homo sapiens) (UniProt P03372); assay: NVS_NR_hER: NovaScreen (NVS) Nuclear Receptor Binding Assay for human Estrogen Receptor (ER) (AID 2283348)
How it was run: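 Scintillation signal from bound radioligand was measured 18 hours after chemical addition to cell-free MCF7 protein extracts, with DMSO as baseline. Activity was scored as signal loss; compounds ran first at 25 uM in duplicate.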

[18] = TOX21_p53_BLA_p4_viability: Viability Assessment in the Tox21 HCT-116 p53 Agonism Beta-lactamase Assay, Phase 4 (AID 2283597);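 further: hits lower the luminescence signal meaning cytotoxicity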
How it was run: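 Compound exposure of HCT116 cells lasts 16 h at 37C, 5% CO2, with DMSO stocks diluted 217-fold. Cellular ATP is then quantified by CellTiter-Glo luminescence after 30 min at room temperature.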

[19] = biological target: Cellular tumor antigen p53 (Homo sapiens) (UniProt P04637); assay: TOX21_p53_BLA_p5_ratio: Tox21 HCT-116 p53 Agonism Beta-lactamase Assay, Ratio, Phase 5 (AID 2283599)
How it was run: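 Beta-lactamase reporter ratio (blue 460 nm over green 530 nm, 405 nm excitation) after 2 h CCF4-AM loading, in HCT-116 cells exposed 16 h at 37 C to compounds pinned at 217-fold dilution. Increases relative to DMSO baseline scored.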

THRA (gene 7067) = THRA (gene 7067) (UniProt P10827); assay: TOX21_TRA_COA_Antagonist_Followup_ratio: Tox21 Thyroid Hormone Receptor alpha Antagonism through Coactivator Recruitment Follow-Up Assay, Ratio (AID 2283953)
How it was run: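 This follow-up to the GH3 luciferase screen checks specificity in a cell-free format. It measures SRC-2 coactivator peptide binding to TRα LBD by TR-FRET and scores loss of ratio signal relative to DMSO.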

THRB (gene 7068) = THRB (gene 7068) (UniProt P10828); assay: TOX21_TRB_COA_Antagonist_Followup_ratio: Tox21 Thyroid Hormone Receptor beta Antagonism through Coactivator Recruitment Follow-Up Assay, Ratio (AID 2283967)
How it was run: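 Test compound was incubated with 5.0 nM GST-TRβ LBD in 0.10% BSA. Then 200 nM fluorescein-SRC-2 peptide and 2 nM terbium anti-GST antibody were added. TR-FRET (520:495 nm) was measured and normalized to DMSO and T3 controls.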

[20] = biological target: human Dopamine Transporter (DAT), SLC6A3 (gene 6531) (UniProt Q01959); assay: NVS_TR_hDAT: NovaScreen (NVS) Transporter Assay for human Dopamine Transporter (DAT) (AID 2283374);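 further: activity means loss of bound radioligand signal relative to DMSO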
How it was run: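 Test chemicals were first screened in duplicate at 25 uM, with actives retested as concentration series. Displacement of a specific radioligand from cell-free human dopamine transporter was measured after 1 h by filtration and scintillation counting.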

[21] = TOX21_PR_BLA_Followup_Agonist_viability: Viability Assessment in the Tox21 HEK293 Progesterone Receptor (PR) Agonism Beta-lactamase Follow-Up Assay (AID 2283935);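 further: signal loss means lower viability so actives are cytotoxic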
How it was run: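 PR-UAS-bla HEK293T cells in 2% charcoal-stripped FBS medium, compound added after 6 hr plating, 16 hr at 37C/5% CO2. After bla FRET read, CellTiter-Glo added; luminescence read after 30 min at room temperature; signal loss marks cytotoxicity.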

## SC1CCCC1
[1]
  AC50: inconclusive: 43.9 µM

## O=C1Cc2ccccc2C1
[2]
  AC50: inconclusive: 100 µM
[3]
  AC50: inconclusive: 100 µM
[4]
  AC50: inconclusive: 100 µM
[5]
  AC50: active: 27.9 µM
[6]
  AC50: inconclusive: 100 µM
[7]
  AC50: inconclusive: 100 µM
[8]
  outcome: inactive
[9]
  AC50: inconclusive: 100 µM

## CC(=O)CCc1ccc(OC(C)=O)cc1
[10]
  AC50: inconclusive: 6.57 µM
[1]
  AC50: inconclusive: 45.8 µM
[11]
  outcome: inactive
[12]
  outcome: inactive
[13]
  outcome: inactive
[14]
  AC50: inconclusive: 81.9 µM
[15]
  AC50: inconclusive: 46.1 µM
[16]
  outcome: inactive

## O=[N+]([O-])c1cc[n+]([O-])cc1
[10]
  outcome: inactive
[1]
  AC50: inconclusive: 25 µM
[14]
  AC50: inconclusive: 46.1 µM
[15]
  outcome: inactive

## CCCCCCC/C=C/C=O
[10]
  outcome: inactive
[17]
  AC50: inconclusive: 4.96 µM
[1]
  AC50: inconclusive: 25 µM
[13]
  outcome: inactive
[16]
  outcome: inactive

## CC(C)CC(=O)C1C(=O)c2ccccc2C1=O
[10]
  AC50: inconclusive: 1.37 µM
[1]
  outcome: inactive
[11]
  outcome: inactive
[12]
  AC50: inconclusive: 74.8 µM
[13]
  AC50: inconclusive: 46.1 µM
[18]
  AC50: inconclusive: 79.6 µM

## Cc1oc(C)c(C(=O)Nc2ccccc2)c1C
[10]
  AC50: inconclusive: 0.183 µM
[1]
  outcome: inactive
[13]
  outcome: inactive
[18]
  outcome: inactive
[19]
  outcome: inactive
[15]
  outcome: inactive
THRA (gene 7067)
  AC50: inconclusive: 38.3 µM
THRB (gene 7068)
  AC50: inconclusive: 38.3 µM

## CC(=[OH+])/C=C(/C)[O-].CC(=[OH+])/C=C(/C)[O-].CC(=[OH+])/C=C(/C)[O-].[Fe]
[20]
  AC50: inconclusive: 0.196 µM

## CC(O)(c1ccc(Cl)cc1)c1ccc(Cl)cc1
[1]
  AC50: inconclusive: 40.1 µM
[12]
  AC50: inconclusive: 70.2 µM
[15]
  AC50: inconclusive: 46.1 µM
[16]
  outcome: inactive
[21]
  outcome: inactive
